Measured values as given in publication PMC6704577.
No constants are given. Whether binding was seen depends on the method and setting. Binding seen in cells or lysates may run through a third protein. Some binding calls cover weakened binding; strength is not graded here.

Chains of the proteins cited; added tags and fusions are not shown.
UniProt O43736: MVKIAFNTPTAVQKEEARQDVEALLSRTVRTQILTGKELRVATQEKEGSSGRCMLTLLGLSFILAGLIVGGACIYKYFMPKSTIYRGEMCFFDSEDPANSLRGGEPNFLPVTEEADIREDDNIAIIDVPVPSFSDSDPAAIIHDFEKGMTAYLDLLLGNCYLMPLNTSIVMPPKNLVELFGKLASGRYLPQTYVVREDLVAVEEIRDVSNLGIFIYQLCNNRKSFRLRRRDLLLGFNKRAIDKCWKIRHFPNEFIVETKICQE

Biological target: Integral membrane protein 2A (ITM2A) in HEK293T cells (human (endogenous in HEK293T)) (UniProt O43736)
Test: co-IP; HEK293T cells lysed in RIPA buffer (50 mM Tris-HCl pH 7.4, 150 mM NaCl, 1% Triton X-100); ITM2A antibody overnight at 4 °C, protein A/G agarose beads; western blot for HUNK

B1: Up-regulated Neu-associated Kinase (HUNK) in HEK293T cells (protein, UniProt P57058 1-714)
chain: MPAAAGDGLLGEPAAPGGGGGAEDAARPAAACEGSFLPAWVSGVPRERLRDFQHHKRVGNYLIGSRKLGEGSFAKVREGLHVLTGEKVAIKVIDKKRAKKDTYVTKNLRREGQIQQMIRHPNITQLLDILETENSYYLVMELCPGGNLMHKIYEKKRLEESEARRYIRQLISAVEHLHRAGVVHRDLKIENLLLDEDNNIKLIDFGLSNCAGILGYSDPFSTQCGSPAYAAPELLARKKYGPKIDVWSIGVNMYAMLTGTLPFTVEPFSLRALYQKMVDKEMNPLPTQLSTGAISFLRSLLEPDPVKRPNIQQALANRWLNENYTGKVPCNVTYPNRISLEDLSPSVVLHMTEKLGYKNSDVINTVLSNRACHILAIYFLLNKKLERYLSGKSDIQDSLCYKTRLYQIEKYRAPKESYEASLDTWTRDLEFHAVQDKKPKEQEKRGDFLHRPFSKKLDKNLPSHKQPSGSLMTQIQNTKALLKDRKASKSSFPDKDSFGCRNIFRKTSDSNCVASSSMEFIPVPPPRTPRIVKKPEPHQPGPGSTGIPHKEDPLMLDMVRSFESVDRDDHVEVLSPSHHYRILNSPVSLARRNSSERTLSPGLPSGSMSPLHTPLHPTLVSFAHEDKNSPPKEEGLCCPPPVPSNGPMQPLGSPNCVKSRGRFPMMGIGQMLRKRHQSLQPSADRPLEASLPPLQPLAPVNLAFDMADGVKTQC
binding: binds
